To fix the notation:
B1: NI-206.22F7: human-derived recombinant anti-FAP antibody; VH SEQ ID NO: 12, VL SEQ ID NO: 14 (antibody, listed as Homo sapiens, V domains shown)
VH: EVQLVETGGGVVQPGRSLRLSCAASGFSFSTHGMYWVRQPPGKGLEWVAVISYDGSDKKYADSVKGRFTISRDNSKNTVYLEMSSVRAEDTALYYCFCRRDAFDLWGQGTMVTVSS
VL: SYVLTQPPSVSVSPGQTARITCSGDALPKKYAYWYQQKSGQAPVLVIYEDTKRPSGIPERFSGSSSGTMATLTISGAQVEDEADYYCYSTDSSGNYWVFGGGTEVTVL
B2: NI-206.17A6: human-derived recombinant anti-FAP antibody; VH SEQ ID NO: 24, VK SEQ ID NO: 26 (antibody, listed as Homo sapiens, V domains shown)
VH: QVQLQESGPGLVRSTETLSLTCLVSGDSINSHYWSWLRQSPGRGLEWIGYIYYTGPTNYNPSLKSRVSISLGTSKDQFSLKLSSVTAADTARYYCARNKVFWRGSDFYYYMDVWGKGTTVTVSS
VL: EIVLTQSPGTLSLSLGERATLSCRASQSLANNYLAWYQQKPGQAPRLLMYDASTRATGIPDRFSGSGSGTDFTLTISRLEPEDFAVYYCQQFVTSHHMYIFGQGTKVEIK
B3: NI-206.18H2: human-derived recombinant anti-FAP antibody; VH SEQ ID NO: 41, VL SEQ ID NO: 43 (antibody, listed as Homo sapiens, V domains shown)
VH: QVQLQESGPRLVKPSETLSLTCTVSGYSISNGYYWGWIRQPPGQGLEWIASVWHSGNTYHNPSLKSRVTILVDTLKNQFSLNLKSVTAADTALYYCARSYTRNDVGAFETWGQGTMVTVSS
VL: SYELTQPPSVSVSPGQTARIACSGDELPKRYAYWYQQKSGQAPVLVMYEDTKRPSGIPERLSGSSSGTVTTLTISGAQVEDEADYYCYSTAPSGNHTFVFGTGTRVTVL
B4: NI-206.27E8: human-derived recombinant anti-FAP antibody; VH SEQ ID NO: 16, VL SEQ ID NO: 18 (antibody, listed as Homo sapiens, V domains shown)
VH: EVQLVESGGGLVEPGGSLRLSCAASGFTFSDAWMNWVRQAPGKGLEWVGRIKTKSDGGTTDYAAPVRGRFSISRDDSKNTLFLEMNSLKTEDTAIYYCFITVIVVSSESPLDHWGQGTLVTVSS
VL: SYELTQPPSVSVSPGQTARITCSGDELPKQYAYWYQQKPGQAPVLVIYKDRQRPSGIPERFSGSSSGTTVTLTISGVQAEDEADYYCQSAYSINTYVIFGGGTKLTVL
B5: NI-206.12G4: human-derived recombinant anti-FAP antibody; VH SEQ ID NO: 20, VL SEQ ID NO: 22 (antibody, listed as Homo sapiens, V domains shown)
VH: EVQLVESGGGLVKPGGSLRLSCAASGFTFSDYYMSWIRQAPGKGLEWISYISSGSSYTNYADSVKGRFTISRDNAKKSVYLEVNGLTVEDTAVYYCARVRYGDREMATIGGFDFWGQGTLVTVSS
VL: SYELTQPPSVSVSPGQTARITCSGDALPKQYAYWYQQSPGQAPVLVIYKDSERPSGIPERFSGSSSGTTVTLTISGVQAEDEADYYCQSADSGGTSRIFGGGTKLTVL
B6: NI-206.59B4: human-derived recombinant anti-FAP antibody; VH SEQ ID NO: 8, VL SEQ ID NO: 10 (antibody, listed as Homo sapiens, V domains shown)
VH: QVQLVQSGAEVKKPGASVKVSCKTSGYTFTDYYIHWVRQAPGQGLEWMGWINPNRGGTNYAQKFQGRVTMTRDTSIATAYMELSRLRSDDTAVYYCATASLKIAAVGTFDCWGQGTLVTVSS
VL: SYELTQPPSVSVSPGQTARITCSGDALSKQYAFWFQQKPGQAPILVIYQDTKRPSGIPGRFSGSSSGTTVTLTISGAQADDEADYYCQSADSSGTYVFGTGTKVTVL
B7: NI-206.82C2: human-derived recombinant anti-FAP antibody; VH SEQ ID NO: 2 or 4 (PIMC), VL SEQ ID NO: 6 (antibody, V domains shown)
VH: QVQLQQSGPGLVKPSQTLSLTCAISGDSVSSNSVTWNWIRQSPSRGLEWLGRTYYRSKWYNDYAVSVKGRITINPDTSKNQFYLQLKSVTPEDAAVYYCARDSSILYGDYWGQGTLVTVSS
VL: QAVLTQPSSLSASPGASASLTCTLPSGINVGTYRIFWFQQKPGSPPQYLLSYKSDSDNHQGSGVPSRFSGSKDASANAGILLISGLQSEDEADYYCMIWHSSAWVFGGGTKLTVL

In one series the test system is FAP. Nature of the series: pepscan epitope mapping with overlapping, truncated and alanine-mutated FAP peptides. The note with it: 188 linear 15-mer peptides, 11 amino acid overlap. It counts as binding, human.
For B1, the “binding epitope (FAP sequence recognized)” value (from here on “binding epitope”) was 381-[…]-391.

In the case of B2, the “binding epitope” value is 77-[…]-87.

For the molecule B3, the “binding epitope” value is 501-[…]-511.

As for B4, the “binding epitope” value was 169-NIYLKQR-175.

As to B5, the “binding epitope” value was 481-[…]-495.

For B6, the “binding epitope” value is 53-SYKTFFP-59.

Take B7: the “binding epitope” value is 525-[…]-535.

Staying with this series, now noted: stepwise N- and C-terminal truncation of FAP 521-539.
For B7, the minimum epitope region is 528-FDRSK-532.

The record behind these values is patent US20180022822A1, “NOVEL ANTI-FIBROBLAST ACTIVATION PROTEIN (FAP) BINDING AGENTS AND USES THEREOF” (Mabimmune Diagnostics AG, priority 2016, published 2018).
